Results: patent US7507860B2 (Pfizer Inc., priority 2004, dated 2009)

Sequences of proteins named here, by UniProt entry; tags and fusion partners are left off.
UniProt P10275, whole entry Q868H: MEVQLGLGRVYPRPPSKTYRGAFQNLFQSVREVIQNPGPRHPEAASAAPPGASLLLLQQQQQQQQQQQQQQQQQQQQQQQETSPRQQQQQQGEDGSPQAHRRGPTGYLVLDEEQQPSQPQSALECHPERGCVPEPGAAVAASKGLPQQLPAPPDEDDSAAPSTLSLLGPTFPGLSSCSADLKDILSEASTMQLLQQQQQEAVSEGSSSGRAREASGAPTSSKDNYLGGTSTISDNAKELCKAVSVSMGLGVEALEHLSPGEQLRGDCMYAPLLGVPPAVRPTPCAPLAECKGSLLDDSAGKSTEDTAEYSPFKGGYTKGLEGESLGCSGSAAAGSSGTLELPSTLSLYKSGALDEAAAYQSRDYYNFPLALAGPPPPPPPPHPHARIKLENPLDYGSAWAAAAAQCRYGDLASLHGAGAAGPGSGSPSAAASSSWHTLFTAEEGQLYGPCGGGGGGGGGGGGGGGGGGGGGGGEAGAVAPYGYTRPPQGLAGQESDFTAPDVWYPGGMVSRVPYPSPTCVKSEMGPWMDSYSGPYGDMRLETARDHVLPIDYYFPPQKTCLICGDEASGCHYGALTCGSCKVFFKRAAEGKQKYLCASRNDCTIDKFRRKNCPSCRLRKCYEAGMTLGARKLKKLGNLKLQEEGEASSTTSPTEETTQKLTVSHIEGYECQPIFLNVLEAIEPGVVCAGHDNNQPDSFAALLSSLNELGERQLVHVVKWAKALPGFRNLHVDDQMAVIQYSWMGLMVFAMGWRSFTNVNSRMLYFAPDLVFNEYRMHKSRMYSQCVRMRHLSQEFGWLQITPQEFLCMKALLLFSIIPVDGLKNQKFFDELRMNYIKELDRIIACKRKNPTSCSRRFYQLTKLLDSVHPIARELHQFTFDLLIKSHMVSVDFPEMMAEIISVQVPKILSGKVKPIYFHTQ

Target: androgen receptor (Homo sapiens, UniProt P10275)
Experiment: AR antagonist cell assay (MDA-MB453-MMTV clone 54-19 luciferase reporter, 100 pM DHT)
Conditions: read-out: AR Cell IC50; MDA-MB453-MMTV clone 54-19, inhibition of 100 pM DHT induction, 17 hr; mean of multiple tests

## CC(C)CC(Oc1ccc(C#N)c(C(F)(F)F)c1)C(=O)NC(C)Cc1ccsc1 (stereo not shown)
  IC50: > 1000 nM

The match of structure and compound is tentative.
